Source: the supplement of paper PMC8256030
The list shows a part of the results. Single values are uncertain here, since repeats match poorly.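 HEK293T cells were given each compound shortly before transfection with a reporter in which red mCherry is followed by the SARS-CoV-2 frameshift element and then GFP in the −1 frame, so GFP appears only after frameshifting.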

Assays:
[1] = system: SARS-CoV-2 -1 PRF reporter mCherry-FSE-GFP(-1); test: mCherry (red) intensity as percent of control; higher = higher upstream reporter expression; settings: 10 µM; 24 h; HEK293T
[2] = system: SARS-CoV-2 -1 PRF reporter mCherry-FSE-GFP(-1); test: percent effect, decrease of GFP/mCherry ratio (-1 PRF reporter) relative to controls; higher = stronger frameshift inhibition; settings: 10 µM; 24 h; HEK293T

| Structure (SMILES) | mCherry [1] [%] | percent effect [2] [%] |
| --- | --- | --- |
| CO[C@@]1(NC(=O)C(C(=O)O)c2ccc(O)cc2)C(=O)N2C(C(=O)O)=C(CSc3nnnn3C)CO[C@@H]21 (stereo partly specified) | 105 | -3.11 |
| CN(C)CCc1c[nH]c2ccc(CS(=O)(=O)N3CCCC3)cc12 [almotriptan] | 115 | -2.33 |
| Oc1ccccc1-c1nnco1 [fenadiazole] | 88.9 | -1.1 |
| CCCC(=O)Nc1ccc(OCC(O)CNC(C)C)c(C(C)=O)c1 (stereo unspecified) [acebutolol] | 89.1 | -7.25 |
| CC(C)NC(=N)NC(=N)Nc1ccc(Cl)cc1 [proguanil] | 64.3 | -0.543 |
| NC(=O)c1cc[n+](CC2=C(C(=O)O)N3C(=O)[C@@H](NC(=O)[C@@H](c4ccccc4)S(=O)(=O)[O-])[C@H]3SC2)cc1 | 98.1 | -0.12 |
| CC(C)(C)CC(C)(C)c1cc(Cc2cc(C(C)(C)CC(C)(C)C)cc(-n3nc4ccccc4n3)c2O)c(O)c(-n2nc3ccccc3n2)c1 [bisoctrizole] | 107 | -0.494 |
| O=C(O)CP(=O)(O)O [fosfonet] | 80.4 | -7.73 |
| c1cc(CNCc2ccncc2)ccn1 [gapicomine] | 90 | -2.44 |
| CC(C)NCC(O)COc1cccc2[nH]c3ccccc3c12 (stereo unspecified) [carazolol] | 95.6 | 4.47 |
| O=S(O)CNc1ccc(S(=O)(=O)c2ccc(NCS(=O)O)cc2)cc1 [aldesulfone] | 70.4 | -2.42 |
| COC(=O)[C@H](Cc1ccccc1)NC(=O)[C@@H](N)CC(=O)O [aspartame] | 104 | 2.17 |
| CN(C)CCOC(=O)C(c1ccccc1)C1(O)CCCC1 (stereo unspecified) [cyclopentolate] | 103 | -4.28 |

Part of the list above in another layout:
Structure (SMILES) | mCherry [1] [%] | percent effect [2] [%]
CCCC(=O)Nc1ccc(OCC(O)CNC(C)C)c(C(C)=O)c1 (stereo unspecified) [acebutolol] | 89.1 | -7.25
CC(C)NC(=N)NC(=N)Nc1ccc(Cl)cc1 [proguanil] | 64.3 | -0.543
